Binding signal data for 42 sequences are collected here from paper PMC7819943, “Rice protein-binding microarrays: a tool to detect cis-acting elements near promoter regions in rice”.

By UniProt entry, the sequences of proteins in these tests, tags left out.
UniProt Q0JBA9, entry or part of it: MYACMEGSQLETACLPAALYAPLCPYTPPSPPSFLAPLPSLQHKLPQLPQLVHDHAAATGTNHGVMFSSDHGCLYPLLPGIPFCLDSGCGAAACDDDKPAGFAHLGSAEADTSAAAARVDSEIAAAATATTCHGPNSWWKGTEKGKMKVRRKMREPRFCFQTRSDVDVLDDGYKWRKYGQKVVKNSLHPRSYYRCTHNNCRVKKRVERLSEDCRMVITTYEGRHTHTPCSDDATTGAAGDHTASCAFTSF

The other results are listed elsewhere or left out.

The assay has as its target OsWRKY34 (Oryza sativa, UniProt Q0JBA9 1-250). Briefly: protein-binding microarray (RPBM); PBS, 2% BSA, 51.3 ng/ul salmon testes DNA, 50 uM zinc acetate, 200 nM TF, 25 C, 1 h; high values mean tight binding. The note with it: protein: recombinant; tags: N-terminal polyhistidine and DsRed monomer fusion (pET32a); label: CyDye5-dUTP incorporated in the synthesized complementary strand; 3' TTTTT single-stranded linker to array surface; dsDNA, one strand shown. The gist of the method:
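Binding signal is reported as fluorescence intensity per feature (arbitrary units) from an Axon 4000B scanner. Incubation used 200 nM of each Ni–NTA-purified, N-terminally polyhistidine- and DsRed-fused transcription factor from E. coli BL21-CodonPlus on a double-stranded custom Agilent array for 1 h at 25 °C, with 50 µM zinc acetate in the buffer, followed by washing.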
With “CTTCTTCTTCTTCTTCGTCTTCGTCACCGCCAGCCAACCACGGAGTCACCTAGTGCAG”, the binding signal is 9560 fluorescence intensity (a.u.).
To “TTTTTTCCTCTCTGTGTGTGTTTGACTGTACGGAATGAGACGGAGTCACCTAGTGCAG” belongs 9980 fluorescence intensity (a.u.); to “TTGCTTGTTTTTCTTTTTGGGCATACTGATCTTAATTTTTCGGAGTCACCTAGTGCAG”, 10000 fluorescence intensity (a.u.); to “CCACGCCGAAACGCACGTCTCGTCGTCTTCATCATCGTCGCGGAGTCACCTAGTGCAG”, 9700 fluorescence intensity (a.u.).
As for “AAACTCATGTACTCTGTTGTGCTATTCTTTTTCATGAACTCGGAGTCACCTAGTGCAG”, the figure is 12000 fluorescence intensity (a.u.); as for “AGTTTGCAAGCAAGATCTGTACAGCCACGCACTTCTTATTCGGAGTCACCTAGTGCAG”, 8550 fluorescence intensity (a.u.); as for “AGAGAGAGAGAGGGGTGGCATTGTGGAGGAGGTGGGCGGCCGGAGTCACCTAGTGCAG”, 8880 fluorescence intensity (a.u.).
To “CGTGAAGACTCGGGTGGGGTTGGTGGTGGCTGTGTGTAGCCGGAGTCACCTAGTGCAG” belongs 12500 fluorescence intensity (a.u.); to “GTCGTCGGCTCTTGGATGCTAAAACTAGATATTCCCCTGTCGGAGTCACCTAGTGCAG”, 8290 fluorescence intensity (a.u.); to “CTTAAGTTATTATCTACTGTACTTTAAATATAATTTTTCGCGGAGTCACCTAGTGCAG”, 8350 fluorescence intensity (a.u.).
For “ATGCTTCCACTGTATGCTTGTTTCATCAGTTTCGCAGATGCGGAGTCACCTAGTGCAG”, the binding signal is 9380 fluorescence intensity (a.u.).
As for “GGGGCCCATGTAGTGTGTCGCCGGCTTGCGTCCGCCGCCGCGGAGTCACCTAGTGCAG”, the figure is 8050 fluorescence intensity (a.u.).
In the case of “CCTCTCTTCCGTTGCGATTCCTTGTACGTTTCCTTCCCCTCGGAGTCACCTAGTGCAG”, the binding signal is 9490 fluorescence intensity (a.u.).
Consider “AGCTGTTACCTGTTCATTTTCTGGTGCTAAGTTTTTGACACGGAGTCACCTAGTGCAG”, for which the binding signal is 8910 fluorescence intensity (a.u.).
To “GTTCTTGGTTCCTGCATTTCTTTTCTTTTTTGCCTTTGTTCGGAGTCACCTAGTGCAG” belongs 11300 fluorescence intensity (a.u.).
“CCGCTACTACTGCTTGTCTGCTGCTGCAGCTGCTGTTATTCGGAGTCACCTAGTGCAG”: the binding signal is 9890 fluorescence intensity (a.u.).
To “CTCTAGTATCCTTGTGTTCCTCGTCGTCGGCGACGAGGACCGGAGTCACCTAGTGCAG” belongs 8460 fluorescence intensity (a.u.); to “CTCCGTCGCTTCATGTTCAACAAGTTAATTCACACTTTAACGGAGTCACCTAGTGCAG”, 10700 fluorescence intensity (a.u.).
To “ATGGCCGCCGCTTTTCCTCATTTTTGCTCGATCCACTGCTCGGAGTCACCTAGTGCAG” belongs 10600 fluorescence intensity (a.u.).
Turning to “CTTCACCTTCTCCTTCTCCAACATCACCATCACCCGGCAACGGAGTCACCTAGTGCAG”, the binding signal was 8950 fluorescence intensity (a.u.).
On to “TTTTAATTAGAATCTAATTAATTGTGGGTTGTTTCAGCTTCGGAGTCACCTAGTGCAG”, for which the binding signal is 8340 fluorescence intensity (a.u.).
To “ATTATCTCCAAACGGTTTGATTTCATGCTCTTCGTACAATCGGAGTCACCTAGTGCAG” belongs 8520 fluorescence intensity (a.u.); to “AGTAAGAATTCTGCATGTTCCCTGCTCCACATTACTACATCGGAGTCACCTAGTGCAG”, 8660 fluorescence intensity (a.u.).
To “ACCTCGATCAGCACCATTTGCACGCTTAACCACATGATGGCGGAGTCACCTAGTGCAG” belongs 8710 fluorescence intensity (a.u.); to “CTCGCGAATTAGTCCAAGTTTATGGAATGGGTTTTGTAATCGGAGTCACCTAGTGCAG”, 8780 fluorescence intensity (a.u.); to “ATACCCGTCTTTTCCTTCCCTTTCATCAATTGCCTCTTGTCGGAGTCACCTAGTGCAG”, 11500 fluorescence intensity (a.u.).
To “CCACCTCGTTTTATGTAAAACACTTAATCTTCAACTTCAGCGGAGTCACCTAGTGCAG” belongs 8860 fluorescence intensity (a.u.); to “GACGGCGAGGTGAGGCGGGAGGCGGTGGTGGTGGAGGAGGCGGAGTCACCTAGTGCAG”, 11800 fluorescence intensity (a.u.); to “TGCATTGGATTTCGCCATGGCTCCCAGTCTGGCAGGATTTCGGAGTCACCTAGTGCAG”, 8160 fluorescence intensity (a.u.).
As to “CCCACCTTGCCTCACCATTGTACGTACCATCTACTCCTGGCGGAGTCACCTAGTGCAG”, the binding signal is 10600 fluorescence intensity (a.u.).
To “GGAGCGCTGGGAGGAAGGGCGTAGGGAGGGAGGGGTGAGGCGGAGTCACCTAGTGCAG” belongs 11600 fluorescence intensity (a.u.); to “TGCAAGGCCAATACACGTACAATCCACAGCCCAATTAATCCGGAGTCACCTAGTGCAG”, 8040 fluorescence intensity (a.u.); to “GTGGCAAGTTGGGCGCGTAAGAGATGCGGAGGGAGGGGAACGGAGTCACCTAGTGCAG”, 8520 fluorescence intensity (a.u.).
Consider “TGTCCAATTGTCTGTCCAAAACTGTGTGTCCACCCCATCACGGAGTCACCTAGTGCAG”, for which the binding signal was 8270 fluorescence intensity (a.u.).
Take “CGTGGTTTCGATTTTTCTGCCCAAGTTTTGTAACTTAGCTCGGAGTCACCTAGTGCAG”: the binding signal is 8180 fluorescence intensity (a.u.).
As for “AAAAACCGCGCGCCGCGGCTCTCTCGACCACTTCCATTCCCGGAGTCACCTAGTGCAG”, the figure is 10100 fluorescence intensity (a.u.); as for “TCCCTAAATGTTTAACGTCGTTGACTTTTTAAAATATGTTCGGAGTCACCTAGTGCAG”, 21000 fluorescence intensity (a.u.).
Take “AGTTTCAGTAGCCTCGCCGATCGACTTGCCACACCGCCGTCGGAGTCACCTAGTGCAG”: the binding signal was 9260 fluorescence intensity (a.u.).
As for “CGAGTAAATTCACTCTCTTTTTTCCCTTTCTCATCATCTCCGGAGTCACCTAGTGCAG”, the figure is 9450 fluorescence intensity (a.u.); as for “ACATGCTTCATATTCTCATGGACTTTCATCCTTCGTAAATCGGAGTCACCTAGTGCAG”, 8970 fluorescence intensity (a.u.); as for “TTTTCTTTTTTATTTTAATTGATTCAATGATCTTTGTGCTCGGAGTCACCTAGTGCAG”, 8070 fluorescence intensity (a.u.).
To “CCAAACATACCCATTATCACATATCGCAGCCGCCCATGTTCGGAGTCACCTAGTGCAG” belongs 8290 fluorescence intensity (a.u.).
